# Experimental data taken from PubChem BioAssay AID2551 (National Center for Advancing Translational Sciences (NCATS), 2010).
# Amino acid sequences for entries named in this document (tags omitted). A change or cut given only in a name is not applied to a line headed by its entry.
# UniProt P51450: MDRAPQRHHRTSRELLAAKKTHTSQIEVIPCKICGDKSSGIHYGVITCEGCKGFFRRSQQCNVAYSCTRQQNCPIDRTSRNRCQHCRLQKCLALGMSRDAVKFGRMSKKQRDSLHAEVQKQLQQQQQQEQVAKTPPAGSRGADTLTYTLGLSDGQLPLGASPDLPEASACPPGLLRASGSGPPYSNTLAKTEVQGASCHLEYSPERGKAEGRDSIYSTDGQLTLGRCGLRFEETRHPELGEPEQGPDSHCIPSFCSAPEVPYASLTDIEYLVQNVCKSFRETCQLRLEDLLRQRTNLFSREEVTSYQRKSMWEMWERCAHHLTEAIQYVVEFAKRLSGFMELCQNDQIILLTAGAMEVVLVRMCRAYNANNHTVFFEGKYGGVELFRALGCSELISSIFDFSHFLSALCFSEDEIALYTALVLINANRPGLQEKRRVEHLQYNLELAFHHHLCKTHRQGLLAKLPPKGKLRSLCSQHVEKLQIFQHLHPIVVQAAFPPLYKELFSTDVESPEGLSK
# Among all 310,000 compounds or so, about 17,000 (5.5%) were called active. This list was built around the results that the source calls inconclusive (neither active nor inactive); the mix of calls is not that of the screen. Calls follow the shape of the dose curve; as a rule, active = well fitted inhibition curve with a large enough effect; inconclusive = small, poorly fitted or top-dose-only effect, or effect the other way; inactive = no such curve, though single readings can be large or run the other way. Potencies beside an inconclusive call are fits to weak or partial responses and may not hold up.
# Biological target: Nuclear receptor ROR-gamma (Mus musculus) (UniProt P51450)
# Test: qHTS for inhibitors of ROR gamma transcriptional activity; also: nearly all actives have a fitted effect of over 60% in size
# Settings: Drosophila S2 Gal4-RORgamma UAS-luciferase reporter, 20 h; activity change, negative = inhibition: at 53.6 µM (top of the series)
# Procedure, shortened: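 Compounds are pin-transferred onto Drosophila Schneider cells expressing a copper-inducible Gal4–ROR gamma transactivation domain fusion. After 1 hr, copper sulfate is added to 700 uM final; luciferase is read 20 hr later.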
# % is scaled to controls: 0 for no effect and ±100 for the full control effect; potency is read from the fitted curve at half-maximal effect.
Compound,Potency,"activity change, negative = inhibition"
Cc1cccc(Cn2c(NCCO)nc3c2c(=O)n(C)c(=O)n3C)c1,"inconclusive: 0.199 µM [inhibitor, full curve]",–
Fc1ccccc1NC(=S)NCc1ccc(Cl)cc1,active: 11.2 µM,–
O=C(Cc1ccc(NC2=NC3CS(=O)(=O)CC3S2)cc1)NCc1ccccc1Cl (stereo not given),–,inactive: 10.2%
C=CCn1c(NCc2cc(Cl)ccc2O)nc2ccccc21,–,inactive: 37%
c1ccc(N2CCN(Cc3cn4ccccc4n3)CC2)cc1,"inconclusive: 11.2 µM [inhibitor, partial curve]",–
NNC(=O)c1sc2cc(C(F)(F)F)cnc2c1-c1cccnc1,active: 14.1 µM,–
O=C(NCc1ccccn1)c1ccc(Cn2c(=S)[nH]c3ccccc3c2=O)cc1,"inconclusive: 15.8 µM [inhibitor, single point]",–
CCSc1nc(N)c2c(C)c(C)sc2n1,"inconclusive: 12.6 µM [activator, single point]",–
CN(Cc1ccccc1)c1ccc(N2C(=O)CCCC2=O)cc1[N+](=O)[O-],"inconclusive: 28.2 µM [activator, single point]",–
CCOc1ccc(OCc2ccc(C(=O)Nc3ccc(Cl)cn3)o2)cc1,"inconclusive: 6.31 µM [activator, partial curve]",–
CCOc1ccc(-n2nc3c(=O)[nH]nc(C)c3c2C)cc1,"inconclusive: 35.5 µM [activator, single point]",–
COc1ccccc1CNC(=O)C1CCN(S(=O)(=O)N2CCCCC2)CC1,"inconclusive: 4.47 µM [activator, partial curve]",–
COC(=O)c1cc(OC)c(OC)cc1NC(=S)Nc1cc(Cl)ccc1OC,active: 1.26 µM,–
Cc1ccc2nc(-c3ccc(NC(=O)CN4C(=O)c5ccccc5C4=O)cc3)sc2c1,"inconclusive: 11.2 µM [inhibitor, single point]",–
O=C(CCc1ccccc1)NNC(=S)NCCc1ccccc1,active: 7.94 µM,–
O=C(NC(=S)Nc1ccccc1C(=O)O)c1cncc(Br)c1,–,inactive: -1.86% [at 1.91 µM]
C=CCN1C(=O)NC(c2ccc(OC)cc2)(C(F)(F)F)S/C1=C(\C#N)c1nnc(N2CCOCC2)n1-c1ccccc1 (stereo not given),active: 4.47 µM,–
CCOc1ccccc1NC(=O)C(=O)N/N=C/c1cc(Br)ccc1O,active: 1.78 µM,–
CCCOc1ccc(/C(O)=C2/C(=O)C(=O)N(CCCN3CCOCC3)C2c2ccncc2)cc1 (stereo not given),–,inactive: 13.9%
O=C(CN1CCN(c2ccccc2)CC1)Nc1ccccc1C(F)(F)F,–,inactive: -20.2%
CC1CCCN(c2ccc3nc4ccccc4c(=O)n3n2)C1 (stereo not given),active: 8.91 µM,–
S=C(NCCCc1ccccc1)Nc1ccccc1Cl,"inconclusive: 5.62 µM [inhibitor, single point]",–
CCC(C)CCCCNC1=NCCS1 (stereo not given),"inconclusive: 10 µM [inhibitor, partial curve, poor fit]",–
CC(C)(C)c1ccc(S(=O)(=O)/C=C\C#N)cc1,active: 0.631 µM,–
Cc1oc2c(cc(NS(=O)(=O)c3ccc(F)cc3)c3ccccc32)c1C(=O)O,–,inactive: 20%

# Two consecutive records out of the list so far, quoted:
Compound,Potency,"activity change, negative = inhibition"
CN(Cc1ccccc1)c1ccc(N2C(=O)CCCC2=O)cc1[N+](=O)[O-],"inconclusive: 28.2 µM [activator, single point]",–
CCOc1ccc(OCc2ccc(C(=O)Nc3ccc(Cl)cn3)o2)cc1,"inconclusive: 6.31 µM [activator, partial curve]",–

# More entries

Compound,Potency,"activity change, negative = inhibition"
CCc1cccc(NC(=O)c2sc3nc4n(c(=O)c3c2C)CCC4)c1,–,inactive: 16%
COC(=O)/C=C/c1ccc(C(=O)NCC(=O)N[C@@H](CCC(=O)OC)C(=O)N[C@@H](CC(C)C)C(N)=O)cc1,–,inactive: 30.9%
CCOC(=O)CNC(=S)N(Cc1ccccc1F)C1CCCCC1,active: 11.2 µM,–
CCCn1c(N2CCN(Cc3ccc(Cl)cc3)CC2)nc2ccccc21,active: 11.2 µM,–
Cc1ccc(C(=O)NC(=S)N(C)C2CCCCC2)cc1Br,active: 0.224 µM,–
CCOC(=O)C(C)Sc1nc2c(cnn2-c2ccc(C)cc2)c(=O)[nH]1 (stereo not given),"inconclusive: 35.5 µM [activator, single point]",–
COc1cccc(-c2nc(Nc3ccncc3)c3ccccc3n2)c1,"inconclusive: 14.1 µM [inhibitor, single point]",–
CCOC(=O)c1ccc(NC(=O)C(=O)NCC2(c3ccc(OC)cc3)CCOCC2)cc1,"inconclusive: 10 µM [activator, partial curve]",–
N#Cc1ccc2ccn(CC(=O)N3CCCc4ccccc43)c2c1,"inconclusive: 10 µM [inhibitor, partial curve]",–
CC1CCCCN1C(=O)CSc1nnc(-c2ccccc2O)o1 (stereo not given),"inconclusive: 15.8 µM [inhibitor, single point]",–
O=C(Nc1cccnc1)c1cnc2ccccc2n1,"inconclusive: 31.6 µM [activator, single point]",–
O=S(=O)(c1ccc(N2CCN(c3ccc(F)cc3)CC2)cc1)N1CCCC1,–,inactive: 7.86%
Cc1cc(-c2ccccc2N)n[nH]1,"inconclusive: 25.1 µM [inhibitor, single point]",–
Cc1ccc(C(CC(=O)N2CCOCC2)c2ccco2)cc1 (stereo not given),–,inactive: 6.98%
Cc1nc(NC(=O)c2ccc(Cl)cc2)sc1Cc1ccc2c(c1)OCO2,"inconclusive: 35.5 µM [inhibitor, single point]",–
O=C(Nc1cc(Cl)ccc1O)c1snnc1-c1ccccc1,"inconclusive: 35.5 µM [inhibitor, single point]",–
CCN1C(=O)C(O)(C2COC(C)(C)CC2=O)c2ccccc21 (stereo not given),–,inactive: -5.8%
COc1ccc(C(=O)c2cc([N+](=O)[O-])ccc2N2CCCC2)cc1,–,inactive: 2.43%
COc1ccc(OC)c(Cc2nnc(CCC(=O)NC3CCCCCCC3)o2)c1,"inconclusive: 20 µM [activator, partial curve, poor fit]",–
CC(/C=N/n1c(-c2ccc(C)cc2)n[nH]c1=S)=C\c1ccco1,active: 2.82 µM,–
N#CCc1nc(-c2cc3ccccc3oc2=O)cs1,"inconclusive: 35.5 µM [inhibitor, single point]",–
COc1cccc(CNCCc2c[nH]c3ccccc23)c1OCc1ccccc1F,"inconclusive: 35.5 µM [inhibitor, single point]",–
FC(F)(F)c1ccccc1-c1cncnc1NCCN1CCOCC1,–,inactive: -22.8%
COc1ccccc1OCCn1cc(C(=O)c2ccco2)c2ccccc21,–,inactive: 38%
CN(Cc1ccccc1)C(=O)c1[nH]cnc1C(=O)NCC(=O)OC(C)(C)C,"inconclusive: 22.4 µM [inhibitor, single point]",–

# Taken from above:
# Entry for Cc1cc(-c2ccccc2N)n[nH]1 under Potency: inconclusive: 25.1 µM [inhibitor, single point]
# Entry for CCCn1c(N2CCN(Cc3ccc(Cl)cc3)CC2)nc2ccccc21 under Potency: active: 11.2 µM
